Experimental data taken from the supplement of paper PMC10849652.
This is one part of the list.

Sequences of proteins named here, by UniProt entry; tags and fusion partners are left off. A change or cut given only in a name is not applied to a line headed by its entry.
UniProt Q99611, whole entry, looked up: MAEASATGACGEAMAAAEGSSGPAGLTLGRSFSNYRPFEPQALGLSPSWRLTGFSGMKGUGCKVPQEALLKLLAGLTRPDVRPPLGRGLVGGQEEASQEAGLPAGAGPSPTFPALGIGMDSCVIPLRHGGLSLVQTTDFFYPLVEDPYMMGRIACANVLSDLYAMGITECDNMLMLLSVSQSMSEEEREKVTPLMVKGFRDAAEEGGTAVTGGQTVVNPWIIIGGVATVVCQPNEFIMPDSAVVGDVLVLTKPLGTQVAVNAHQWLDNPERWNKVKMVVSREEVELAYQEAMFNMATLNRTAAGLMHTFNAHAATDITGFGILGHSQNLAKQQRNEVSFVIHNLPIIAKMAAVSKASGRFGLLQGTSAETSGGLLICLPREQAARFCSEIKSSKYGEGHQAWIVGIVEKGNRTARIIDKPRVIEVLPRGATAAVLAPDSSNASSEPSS
UniProt Q9BY50: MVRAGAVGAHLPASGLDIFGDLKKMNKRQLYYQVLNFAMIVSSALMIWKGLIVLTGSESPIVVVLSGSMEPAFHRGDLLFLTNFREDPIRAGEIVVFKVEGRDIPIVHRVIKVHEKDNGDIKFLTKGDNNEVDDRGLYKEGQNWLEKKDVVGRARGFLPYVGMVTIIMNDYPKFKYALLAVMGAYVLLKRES
UniProt O95104: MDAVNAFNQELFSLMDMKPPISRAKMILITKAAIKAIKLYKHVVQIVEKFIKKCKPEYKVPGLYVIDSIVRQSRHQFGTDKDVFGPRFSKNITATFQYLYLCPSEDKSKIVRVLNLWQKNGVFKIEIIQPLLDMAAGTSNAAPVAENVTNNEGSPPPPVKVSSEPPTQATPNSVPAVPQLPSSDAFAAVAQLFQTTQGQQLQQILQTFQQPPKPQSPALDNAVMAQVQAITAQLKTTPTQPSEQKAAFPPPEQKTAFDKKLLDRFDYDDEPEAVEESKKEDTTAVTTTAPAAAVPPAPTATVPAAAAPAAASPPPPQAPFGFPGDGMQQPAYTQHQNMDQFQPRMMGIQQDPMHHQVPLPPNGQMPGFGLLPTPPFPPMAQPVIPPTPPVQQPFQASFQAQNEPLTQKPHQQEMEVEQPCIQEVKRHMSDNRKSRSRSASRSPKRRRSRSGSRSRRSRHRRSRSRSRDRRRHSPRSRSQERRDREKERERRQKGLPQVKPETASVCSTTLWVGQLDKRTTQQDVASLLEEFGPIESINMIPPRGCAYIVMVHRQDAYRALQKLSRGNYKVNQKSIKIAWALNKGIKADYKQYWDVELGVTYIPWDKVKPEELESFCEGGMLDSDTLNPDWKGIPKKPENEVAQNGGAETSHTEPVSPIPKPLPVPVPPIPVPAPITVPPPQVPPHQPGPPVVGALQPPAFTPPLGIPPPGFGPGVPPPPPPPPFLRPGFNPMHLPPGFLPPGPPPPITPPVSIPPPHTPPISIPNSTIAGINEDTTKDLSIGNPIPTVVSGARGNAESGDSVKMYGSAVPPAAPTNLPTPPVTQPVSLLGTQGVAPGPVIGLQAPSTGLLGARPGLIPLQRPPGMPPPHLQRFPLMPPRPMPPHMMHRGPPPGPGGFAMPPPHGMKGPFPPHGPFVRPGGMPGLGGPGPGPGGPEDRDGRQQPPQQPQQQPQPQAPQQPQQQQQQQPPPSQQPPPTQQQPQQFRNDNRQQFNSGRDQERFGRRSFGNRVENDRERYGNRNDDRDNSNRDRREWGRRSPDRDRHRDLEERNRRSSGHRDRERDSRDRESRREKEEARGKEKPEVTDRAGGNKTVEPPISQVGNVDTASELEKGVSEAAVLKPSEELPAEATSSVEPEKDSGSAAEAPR
UniProt Q9BQE4, whole entry, looked up: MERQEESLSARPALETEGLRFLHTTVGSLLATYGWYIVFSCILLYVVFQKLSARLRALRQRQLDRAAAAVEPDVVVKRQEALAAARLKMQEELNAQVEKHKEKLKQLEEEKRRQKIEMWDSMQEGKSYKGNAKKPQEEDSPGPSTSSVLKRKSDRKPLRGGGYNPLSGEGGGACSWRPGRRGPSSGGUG
UniProt P25815: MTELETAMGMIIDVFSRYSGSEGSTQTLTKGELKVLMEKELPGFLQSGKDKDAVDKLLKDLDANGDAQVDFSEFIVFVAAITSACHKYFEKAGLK
UniProt P60059: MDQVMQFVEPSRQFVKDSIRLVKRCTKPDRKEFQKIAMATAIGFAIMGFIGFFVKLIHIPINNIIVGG

How the values were obtained:
Experiment in all cases: log2 fold change, soluble protein after heating vs DMSO (PISA); higher = thermal stabilisation; K562 lysate, 10 uM; active = over 0.2 and 3.5 SD of the protein, either way, in both replicates (recomputed)
[1] = compound: C1=CC=C(C=C1)[C@H](COC2=CC3=C(C=C2)NC(=O)N3)NC(=O)C4=CC=CN(C4=O)CC5=CC(=C(C=C5)F)F
How it was run: (§1)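 Values give the log-two fold change in thermal stability against solvent controls, from duplicates. Crude K562 extract at 1 mg/mL protein, made by dounce homogenisation in PBS pH 7.4 with 1 mM MgCl2, was treated with 10 μM compound for 30 min. After 3 min heating across 48°C-58°C, aliquots were pooled, adjusted to 0.5% NP-40 at 4°C and centrifuged at 21,000xg for 90 min. The supernatant was measured by TMTpro 16plex LC-MS/MS with channel sums equalised.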

[2] = compound: CC1=C(SC2=C1C(=N[C@H](C3=NN=C(N32)C)CC(=O)N)C4=CC=C(C=C4)Cl)C
How it was run: as §1

[3] = compound: CC1=C2C(=CC=C1)N=C(N(C2=O)C3=CC=CC=C3C)CN4C=NC5=C(N=CN=C54)N
How it was run: as §1

[4] = compound: Cc1sc2c(c1C)C(c1ccc(Cl)cc1)=N[C@@H](CC(=O)OC(C)(C)C)c1nnc(C)n1-2
How it was run: as §1

[5] = compound: c1ccc([C@@H]2C[C@H]2NC2CCNCC2)cc1
How it was run: as §1

Measured: log2 fold change

SEPHS2 (UniProt Q99611)
inactive: [1] 0.046 | [2] 0.015 | [3] -0.056 | [4] -0.026 | [5] 0.017

SEC11C (UniProt Q9BY50)
inactive: [1] -0.215 | [2] -0.164 | [3] 0.075 | [4] -0.032 | [5] -0.005

SCAF4 (UniProt O95104)
inactive: [1] -0.059 | [2] 0.038 | [3] 0.024 | [4] 0.015 | [5] 0

SELENOS (UniProt Q9BQE4)
inactive: [1] 0.019 | [2] 0.022 | [3] -0.104 | [4] 0.042 | [5] 0

S100P (UniProt P25815)
inactive: [1] -0.017 | [2] -0.083 | [3] -0.066 | [4] 0.001 | [5] 0.098

SEC61G (UniProt P60059)
inactive: [1] 0.269 | [2] -0.063 | [3] -0.016 | [4] -0.065 | [5] -0.225
